# Assay results from article PMC7862700.
# The other results are listed elsewhere or left out. The exact form of the protein is not confirmed.
# Target: T1, ETV4 (UniProt P43268)
# T1 sequence: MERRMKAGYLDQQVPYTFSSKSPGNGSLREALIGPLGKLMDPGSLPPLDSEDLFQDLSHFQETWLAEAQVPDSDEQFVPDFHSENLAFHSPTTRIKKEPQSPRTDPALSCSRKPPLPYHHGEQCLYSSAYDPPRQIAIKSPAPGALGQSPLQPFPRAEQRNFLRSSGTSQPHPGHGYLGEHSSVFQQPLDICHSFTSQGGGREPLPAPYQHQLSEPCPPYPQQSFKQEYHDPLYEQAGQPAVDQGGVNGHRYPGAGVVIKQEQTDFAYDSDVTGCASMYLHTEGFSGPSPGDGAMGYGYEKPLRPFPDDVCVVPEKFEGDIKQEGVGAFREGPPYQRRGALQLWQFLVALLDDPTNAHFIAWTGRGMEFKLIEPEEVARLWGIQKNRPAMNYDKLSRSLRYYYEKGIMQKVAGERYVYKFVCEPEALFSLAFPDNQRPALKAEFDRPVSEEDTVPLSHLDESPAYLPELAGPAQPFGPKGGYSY
# Assay: DAPPL (digital affinity profiling via proximity ligation, sequencing)
# Conditions: 10 mM Tris-HCl pH 7.5, 50 mM NaCl, 1 mM DTT, 4% glycerol, room temperature, 30 min; GST-TFs on glutathione beads, 16-mer random dsDNA library, 0.1% …; high values mean tight binding; double strand, one strand shown; scale: fold enrichment (6-mer frequency, TF over GST control)
row,Sequence,binding signal
1,CCCTTA,1.4
2,GATAAT,1.03
3,TGTCAC,1.16
4,TTTCAC,1.37
5,TCCCCC,1.55
6,AATCTA,1.1
7,GTGACC,1.17
8,AACCCT,1.25
9,GTTTAT,1.03
10,TCTATT,1.21
11,CCTTTG,1.39
12,GCAATT,1.15
13,CTATTG,1.34
14,CCCCTC,1.36
15,GATGCA,1.16
16,GTTCGC,1.07
17,TTCATG,1.27
18,TGTTTT,1.34
19,TCACTC,1.15
20,ATTCTC,1.29

row,Sequence,binding signal
1,TCCGCT,2.37
2,CGTCCT,1.37
3,TACAAC,1.18
4,TCTTCC,2.54
5,TCCGGT,4.4
6,TCATCC,1.43
7,TCCTAG,1.22
8,CCATCA,1.21
9,CTGTTG,1.04
10,GCACAA,1.02
11,CTGTCC,1.27
12,AAGCTT,1.35
13,CGTTGC,1.06
14,TACCTA,1.32
15,TAGTTA,1.13
16,CGCTTG,1.03
17,AACTCC,1.3
18,TCACCT,1.24
19,TAAGAA,1.07

# Two entries from above, bar-delimited:
row | Sequence | binding signal
4 | TTTCAC | 1.37
5 | TCCCCC | 1.55
